Values of other authors as cited in US9115147B2, “Tricyclic derivatives and their pharmaceutical use and compositions” (Cephalon, Inc., priority 2009, dated 2015).
At least one compound was matched to its structure with a doubt left.

System: patients with advanced pain and cancer
Conditions: single agent; cited from earlier work

In the case of Cc1cc2c(s1)Nc1ccccc1N=C2N1CCN(C)CC1 [OLN, olanzapine], the nausea is given as “improves or reduces nausea”.
